# Values of other authors as cited in US6586419B1, “Phototherapeutic inactivation of ocular viruses” (PDT Systems, Inc., priority 1997, dated 2003).
# Some of these results come from one statement about several compounds together.
# Test system: cytomegalovirus (CMV) retinitis
# Settings: AIDS patients; cited from earlier work
structure (smiles),measurement,value
O=C(O)P(=O)(O)O [foscarnet],patients exhibiting an initial response to therapy,82%-100%
Nc1nc(O)c2ncn(COC(CO)CO)c2n1 [ganciclovir],patients exhibiting an initial response to therapy,82%-100%
